{"source": "PubChem BioAssay AID540314", "about": "(Broad Institute, 2011)", "assay": "viability loss in BJeHLT fibroblasts, dose response, counter-screen for Ras selective lethality project, cell-based, plate reader, dry powder, set 4 (AID 540314)", "conditions": "Alamar Blue fluorescence, 48 h; at 48 µM (top of the series)", "note": "Inconclusive means that the source gave no clear call. Such entries were picked first, then a sample of the others. Calls of active or inactive are those of the source.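 Rule for the calls: active = compounds whose fitted half-maximal potency is at most ten times their top valid tested dose, reducing viability; inconclusive = flat curve with 30 to 70% viability loss, or poor fit; inactive = the rest.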", "data": [{"molecule": "Cc1onc(C(=O)N2CCN(Cc3ccccc3)CC2)c1[N+](=O)[O-]", "values": [{"measurement": "activity change, negative = less viable", "result": "inactive: 8.05%"}]}, {"molecule": "COc1ccc(C(c2ccc(OC)cc2)N2CCN(C(=O)c3noc(C)c3[N+](=O)[O-])CC2)cc1", "values": [{"measurement": "activity change, negative = less viable", "result": "inconclusive: -45.6%"}]}]}
